We go through 19 compounds from article PMC7359024, “Synthesis, Structure–Activity Relationship, and Mechanistic Studies of Aminoquinazolinones Displaying Antimycobacterial Activity” (ACS Infectious Diseases, 2020).

The structures appear in SMILES notation.

For one series, the system named is Chinese Hamster Ovarian (CHO) cell lines.
Details: not given
As to `CS(=O)(=O)c1cccc(-c2ccc3nc(N)n(-c4ccc(C(F)(F)F)cc4)c(=O)c3c2)c1` [compound 1, 2-Amino-6-(3-(methylsulfonyl)phenyl)-3-(4-(trifluoromethyl)phenyl)quinazolin-4(3H)-one], the “SI (safety index)” value was >100 (>400x).

Still in this series, the particulars now being: CHO IC50 versus MIC90 GASTE-Fe.
Consider `Nc1nc2ccc(-c3cccc(C(=O)O)c3)cc2c(=O)n1-c1ccc(C(F)(F)F)cc1` [compound 20], for which the “SI (safety index)” value is recorded as 1 x. The same measure, in the same setting: the figure for `CN1CCN(C(=O)c2cccc(-c3ccc4nc(N)n(-c5ccc(C(F)(F)F)cc5)c(=O)c4c3)c2)CC1` [compound 19] is 32 x; for `Nc1nc2cc(-c3cccc(C(F)(F)F)c3)ccc2c(=O)n1-c1ccc(C(F)(F)F)cc1` [compound 32] it is above 63 x. `Nc1nc2ccc(-c3cccc(C(=O)NCCO)c3)cc2c(=O)n1-c1ccc(C(F)(F)F)cc1` [compound 14]: the “SI (safety index)” value is reported as above 49 x. Same read-out and setting: the figure for `C[S+]([O-])c1cccc(-c2ccc3c(=O)n(-c4ccc(C(F)(F)F)cc4)c(N)nc3c2)c1` (stereo not shown) [compound 31] is above 38 x; for `CNC(=O)c1cccc(-c2ccc3nc(N)n(-c4ccc(C(F)(F)F)cc4)c(=O)c3c2)c1` [compound 11] it is 123 x.

Regarding `C[S+]([O-])c1cccc(-c2ccc3nc(N)n(-c4ccc(C(F)(F)F)cc4)c(=O)c3c2)c1` (stereo not shown) [compound 2, 2-Amino-6-(3-(methylsulfinyl)phenyl)-3-(4-(trifluoromethyl)phenyl)quinazolin-4(3H)-one], the “SI (safety index)” value is reported as above 156 x. On the same count and under the same terms, the figure for `NC(=O)c1cccc(-c2ccc3nc(N)n(-c4ccc(C(F)(F)F)cc4)c(=O)c3c2)c1` [compound 9] is above 400 x. On the same count and under the same terms, with `CN(C)C(=O)c1cccc(-c2ccc3nc(N)n(-c4ccc(C(F)(F)F)cc4)c(=O)c3c2)c1` [compound 10] the figure was 0.3 x; with `CN(C)CCNC(=O)c1cccc(-c2ccc3nc(N)n(-c4ccc(C(F)(F)F)cc4)c(=O)c3c2)c1` [compound 13], above 61 x; with `CNc1nc2ccc(-c3cccc([S+](C)[O-])c3)cc2c(=O)n1-c1ccc(C(F)(F)F)cc1` (stereo not shown) [compound 40, 2-(Methylamino)-6-(3-(methylsulfinyl)phenyl)-3-(4-(trifluoromethyl)phenyl)quinazolin-4(3H)-one], above 36 x.

As for `Nc1nc2ccc(-c3cccc(C(=O)NCCN4CCOCC4)c3)cc2c(=O)n1-c1ccc(C(F)(F)F)cc1` [compound 15, 3-(2-amino-4-oxo-3-(4-(trifluoromethyl)phenyl)-3,4-dihydroquinazolin-6-yl)-N-(2-morpholinoethyl)benzamide], the “SI (safety index)” value worked out at 6 x. The same measure, in the same setting: with `Nc1nc2ccc(-c3cccnc3)cc2c(=O)n1-c1ccc(C(F)(F)F)cc1` [compound 22] the figure was above 160 x; with `Nc1nc2ccc(-c3cccc(S(=O)(=O)C4CC4)c3)cc2c(=O)n1-c1ccc(C(F)(F)F)cc1` [compound 8], 0.01 x. Same read-out and setting: with `CNc1nc2ccc(-c3cccc(S(C)(=O)=O)c3)cc2c(=O)n1-c1ccc(C(F)(F)F)cc1` [compound 41, 2-(Methylamino)-6-(3-(methylsulfonyl)phenyl)-3-(4-(trifluoromethyl)phenyl)quinazolin-4(3H)-one] the figure was above 0.4 x; with `CS(=O)(=O)c1cccc(-c2ccc3c(=O)n(-c4ccc(C(F)(F)F)cc4)c(N)nc3c2)c1` [compound 30], above 36 x; with `Nc1nc2ccc(-c3cccc(C(=O)N4CCSCC4)c3)cc2c(=O)n1-c1ccc(C(F)(F)F)cc1` [compound 18, 2-Amino-6-(3-(thiomorpholine-4-carbonyl)phenyl)-3-(4-(trifluoromethyl)phenyl)quinazolin-4(3H)-one], above 76 x. On the same count and under the same terms, with `Cc1ccc(S(C)(=O)=O)cc1-c1ccc2nc(N)n(-c3ccc(C(F)(F)F)cc3)c(=O)c2c1` [compound 7] the figure was above 24 x.
